Laboratory results published in paper doi:10.1101/2022.06.07.495079.
No constants are given. Whether binding was seen depends on the method and setting. In cells and extracts the contact can be indirect. Some binding calls cover weakened binding; strength is not graded here.

By UniProt entry, the sequences of proteins in these tests, tags left out.
UniProt P05198: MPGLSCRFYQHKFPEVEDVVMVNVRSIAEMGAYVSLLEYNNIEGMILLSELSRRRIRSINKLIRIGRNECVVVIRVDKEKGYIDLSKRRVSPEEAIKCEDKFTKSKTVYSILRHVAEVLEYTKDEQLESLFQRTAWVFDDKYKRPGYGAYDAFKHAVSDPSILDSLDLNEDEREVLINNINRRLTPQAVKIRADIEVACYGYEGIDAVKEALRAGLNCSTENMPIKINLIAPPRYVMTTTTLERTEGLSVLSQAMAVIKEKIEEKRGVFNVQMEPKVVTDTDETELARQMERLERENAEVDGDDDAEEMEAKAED
UniProt P19525: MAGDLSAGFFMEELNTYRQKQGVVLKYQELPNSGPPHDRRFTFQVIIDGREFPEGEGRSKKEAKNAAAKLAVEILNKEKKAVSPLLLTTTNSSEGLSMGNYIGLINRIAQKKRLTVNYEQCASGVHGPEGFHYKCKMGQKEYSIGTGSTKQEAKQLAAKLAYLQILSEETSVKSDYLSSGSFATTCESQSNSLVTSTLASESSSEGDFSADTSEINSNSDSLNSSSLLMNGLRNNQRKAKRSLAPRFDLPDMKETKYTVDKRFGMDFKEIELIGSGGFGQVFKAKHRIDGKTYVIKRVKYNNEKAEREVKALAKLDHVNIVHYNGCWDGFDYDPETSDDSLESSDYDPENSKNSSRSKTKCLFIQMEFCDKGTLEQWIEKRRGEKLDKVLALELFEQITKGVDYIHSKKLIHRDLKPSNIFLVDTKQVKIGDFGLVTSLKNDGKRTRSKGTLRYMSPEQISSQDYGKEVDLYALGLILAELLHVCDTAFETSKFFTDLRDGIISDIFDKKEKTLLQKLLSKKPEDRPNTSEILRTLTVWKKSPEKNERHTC
UniProt P19474: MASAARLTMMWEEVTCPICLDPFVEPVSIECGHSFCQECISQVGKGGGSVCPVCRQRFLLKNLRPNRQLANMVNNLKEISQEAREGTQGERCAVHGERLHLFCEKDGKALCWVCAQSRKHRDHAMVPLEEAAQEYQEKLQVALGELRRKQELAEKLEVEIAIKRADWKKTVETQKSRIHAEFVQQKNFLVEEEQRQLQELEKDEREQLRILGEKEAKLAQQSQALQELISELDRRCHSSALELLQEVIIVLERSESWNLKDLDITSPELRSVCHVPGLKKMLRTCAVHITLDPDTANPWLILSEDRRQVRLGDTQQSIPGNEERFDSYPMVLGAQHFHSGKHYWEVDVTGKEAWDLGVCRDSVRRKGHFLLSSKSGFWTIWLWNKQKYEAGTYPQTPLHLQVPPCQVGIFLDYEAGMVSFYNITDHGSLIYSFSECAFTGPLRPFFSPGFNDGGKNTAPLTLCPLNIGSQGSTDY
UniProt P62136: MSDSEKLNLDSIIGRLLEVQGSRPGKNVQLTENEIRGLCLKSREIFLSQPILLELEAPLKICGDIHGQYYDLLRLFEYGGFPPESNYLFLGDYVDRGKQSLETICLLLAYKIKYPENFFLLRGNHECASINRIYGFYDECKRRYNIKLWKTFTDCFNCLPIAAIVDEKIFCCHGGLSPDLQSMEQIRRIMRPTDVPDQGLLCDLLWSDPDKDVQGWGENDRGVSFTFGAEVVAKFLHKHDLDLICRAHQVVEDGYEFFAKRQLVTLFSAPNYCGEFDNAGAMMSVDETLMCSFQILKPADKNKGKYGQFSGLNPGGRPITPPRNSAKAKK

Tests used:
Experiment in all cases: co-IP
[1] = biological target: eIF2α (pcDNA3.1a-eIF2α) (UniProt P05198)
[2] = biological target: PKR, transfected in HEK293T (Fig 4C; plasmid not named) (human (cDNA from HLCZ01 hepatoma cells)) (UniProt P19525)
[3] = biological target: TRIM21, transfected in HEK293T (Fig 4C; plasmid not named) (human (cDNA from HLCZ01 hepatoma cells)) (UniProt P19474)
[4] = biological target: Flag-tagged PKR (p3xFlag-CMV-PKR) (human (cDNA from HLCZ01 hepatoma cells)) (UniProt P19525)
[5] = biological target: endogenous PKR (A549 cells) (human (endogenous in A549)) (UniProt P19525)
[6] = biological target: endogenous TRIM21 (A549 cells) (human (endogenous in A549)) (UniProt P19474)

Flag-tagged TRIM21 (p3xFlag-CMV-TRIM21) (from UniProt P19474 1-475)
binding [1]: no binding

PP1α, transfected in HEK293T (Fig 4C; plasmid not named) (from UniProt P62136 1-330) (enzyme)
binding [2]: binds | binding [3]: binds

V5-tagged TRIM21 (pcDNA3.1a-TRIM21) (from UniProt P19474 1-475)
binding [4]: binds

endogenous PP1α (A549 cells) (from UniProt P62136 1-330) (enzyme)
binding [5]: binds | binding [6]: binds

endogenous TRIM21 (A549 cells) (from UniProt P19474 1-475)
binding [5]: binds
